This note sets out measurements from US20090176817A1, “Method of Treatment of Diarrhea-Predominant Irritable Bowel Syndrome in a Subject” (priority 2005, published 2009).

For the series, the system named is purified human alpha-1 acid glycoprotein (AAG). In kind it is in vitro ADME. The protocol: Protein binding was also evaluated in an in vitro study in human, mouse, rat, and dog plasma using equilibrium dialysis (12-14K molecular weight cut-off membrane). This study measured the binding of (^14C)-cilansetron in plasma at nominal concentrations (30, 90, and 300 ng/mL) which are much higher than those encountered in vivo in humans. This study also measured the binding of (^14C)-cilansetron to purified human serum albumin at cilansetron concentrations ranging from 30-3000 ng/mL and to purified human alpha-1 acid glycoprotein (AAG) at concentrations ranging from 30-10000 ng/mL.

Each structure is given as a SMILES string.

For the molecule `Cc1nccn1C[C@H]1CCc2c(c3cccc4c3n2CCC4)C1=O` [Cilansetron, (R)-(−)-4,5,6,8,9,10-hexahydro-10-[(2-methyl-1H-imidazol-1-yl)methyl]-11H-pyrido-[3,2,1-jk]-carbazol-11-one], the Apparent binding sites was 0.6. In addition, for the setting “human, purified aag”, the “Affinity constant (Ka)” value was found to be 0.56 µM⁻¹.
